PubChem BioAssay AID1159578 | Peter MacCallum Cancer Centre – 2015
In all, the deposit lists about 18,000 reagents; this is a part drawn at random. Of all reagents, about 1,030 (5.7%) were called active. 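Inactive calls also include pools with fewer than 3300 nuclei, whose migration was not assessed.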 The raw values are shown without normalisation. Reagent sequences are not shown.

- Purpose: 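Knock-downs that alter how fast lymphatic endothelial cells migrate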 (primary screen)
- Cells: human lymphatic endothelial cells
- Reagents: siRNA pool against human genes, 40 nM
- Time to read-out: 48 h after transfection
- Read-out: 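Cells stained with dye and imaged after a scratch; covered wound area and nuclei counted, duplicates averaged, migration set against mock wells and turned into a robust z-score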
- Direction: migration robust z-score: higher = faster migration into the scratch; migration relative to mock: higher = more scratch area covered than mock; nuclei per well: higher = more cells in the well
- Active means: 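Migration changed when robust z exceeds 2 or falls below -2 and mean nuclei number is at least 3300; otherwise not called changed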
- Meaning of the calls: active = migration changed; inactive = no migration change, or too few cells

no.	gene symbol	migration robust z-score	migration class with cell-count check	migration relative to mock	nuclei per well, duplicate mean	Call
1	MARS1 (GeneID 4141)	-2.21	migration z below -2; enough cells	0.38	4832	active
2	KCNJ12 (GeneID 3768)	0.18	migration z between -2 and 2; enough cells	0.84	5285	inactive
3	FAM47B (GeneID 170062)	-1.77	migration z between -2 and 2; enough cells	0.42	3419	inactive
4	PRDM1 (GeneID 639)	-0.44	migration z between -2 and 2; enough cells	0.72	4424	inactive
5	TARBP2 (GeneID 6895)	-1.28	migration z between -2 and 2; enough cells	0.55	5796	inactive
6	SEMA4A (GeneID 64218)	0.02	migration z between -2 and 2; enough cells	0.89	5280	inactive
7	DSN1 (GeneID 79980)	0.01	migration z between -2 and 2; enough cells	0.88	4544	inactive
8	RASL10A (GeneID 10633)	-0.13	migration z between -2 and 2; enough cells	0.78	4799	inactive
9	DPYSL5 (GeneID 56896)	-0.08	migration z between -2 and 2; enough cells	0.86	6894	inactive
10	MOGS (GeneID 7841)	-0.36	migration z between -2 and 2; enough cells	0.74	6844	inactive
11	CREBRF (GeneID 153222)	-0.56	migration z between -2 and 2; enough cells	0.74	5714	inactive
12	CDCA7 (GeneID 83879)	-0.68	migration z between -2 and 2; enough cells	0.71	5088	inactive
13	SLC22A10 (GeneID 387775)	-1.23	migration z between -2 and 2; enough cells	0.57	6759	inactive
14	MRPL20 (GeneID 55052)	-0.15	migration z between -2 and 2; enough cells	0.85	5764	inactive
15	ZBTB6 (GeneID 10773)	0.71	migration z between -2 and 2; enough cells	1.06	5766	inactive
16	OR8B4 (GeneID 283162)	0.82	migration z between -2 and 2; enough cells	1.1	6087	inactive
17	ACTN2 (GeneID 88)	1.03	migration z between -2 and 2; enough cells	1	4128	inactive
18	GNGT1 (GeneID 2792)	-0.06	migration z between -2 and 2; enough cells	0.87	5918	inactive
19	UBXN6 (GeneID 80700)	1.3	migration z between -2 and 2; enough cells	1.06	4302	inactive
20	DNAJC6 (GeneID 9829)	-2.08	migration z below -2; enough cells	0.34	4656	active
21	HEPACAM2 (GeneID 253012)	0.15	migration z between -2 and 2; enough cells	0.92	6692	inactive
22	ADAMTS16 (GeneID 170690)	-0.08	migration z between -2 and 2; enough cells	0.79	5592	inactive
23	ELOF1 (GeneID 84337)	-1.08	migration z between -2 and 2; enough cells	0.6	6152	inactive
24	KNDC1 (GeneID 85442)	-1.52	under 3300 nuclei; migration not judged	0.48	2666	inactive
25	COL3A1 (GeneID 1281)	-0.13	migration z between -2 and 2; enough cells	0.85	5510	inactive
26	NUCLEOLIN (GeneID 4691)	2.79	migration z above 2; enough cells	1.6	7000	active
27	C1GALT1 (GeneID 56913)	-0.29	migration z between -2 and 2; enough cells	0.75	5461	inactive
28	ANKMY1 (GeneID 51281)	0.56	migration z between -2 and 2; enough cells	1.03	5639	inactive
29	OR52K2 (GeneID 119774)	-0.18	migration z between -2 and 2; enough cells	0.84	6022	inactive
30	INTS10 (GeneID 55174)	0.95	migration z between -2 and 2; enough cells	1.13	6516	inactive
31	CD86 (GeneID 942)	1.92	migration z between -2 and 2; enough cells	1.18	5196	inactive
32	MARCKSL1 (GeneID 65108)	-1.58	migration z between -2 and 2; enough cells	0.48	5258	inactive
33	FAM168B (GeneID 130074)	0.1	migration z between -2 and 2; enough cells	0.91	6250	inactive
34	MTMR11 (GeneID 10903)	0.5	migration z between -2 and 2; enough cells	1.02	6538	inactive
35	IRX3 (GeneID 79191)	1.93	migration z between -2 and 2; enough cells	1.38	6118	inactive
36	CHCHD7 (GeneID 79145)	-1.02	migration z between -2 and 2; enough cells	0.62	6068	inactive
37	DUOX2 (GeneID 50506)	-1.25	migration z between -2 and 2; enough cells	0.56	5447	inactive
38	TGFB3 (GeneID 7043)	-1.25	migration z between -2 and 2; enough cells	0.56	4268	inactive
39	GPA33 (GeneID 10223)	-0.17	migration z between -2 and 2; enough cells	0.84	6111	inactive
40	CLMN (GeneID 79789)	0.62	migration z between -2 and 2; enough cells	0.92	6064	inactive
41	RNF26 (GeneID 79102)	-1.48	migration z between -2 and 2; enough cells	0.52	5386	inactive
42	GATA3 (GeneID 2625)	-0.16	migration z between -2 and 2; enough cells	0.84	5748	inactive
43	TM2D1 (GeneID 83941)	1.29	migration z between -2 and 2; enough cells	1.21	6554	inactive
44	HTR1F (GeneID 3355)	0.03	migration z between -2 and 2; enough cells	0.81	6260	inactive
45	IFNA5 (GeneID 3442)	-0.92	migration z between -2 and 2; enough cells	0.66	5719	inactive
46	SIX4 (GeneID 51804)	0.28	migration z between -2 and 2; enough cells	0.86	4824	inactive
47	NLRP10 (GeneID 338322)	-0.05	migration z between -2 and 2; enough cells	0.8	7038	inactive
48	KCTD13 (GeneID 253980)	-0.42	migration z between -2 and 2; enough cells	0.72	4522	inactive
49	MYCL (GeneID 4610)	-0.55	migration z between -2 and 2; enough cells	0.7	5754	inactive
50	TSPAN13 (GeneID 27075)	0.02	migration z between -2 and 2; enough cells	0.9	7403	inactive
51	LRRC14 (GeneID 9684)	0.36	migration z between -2 and 2; enough cells	0.98	5673	inactive
52	HOXC8 (GeneID 3224)	0.74	migration z between -2 and 2; enough cells	1.07	5700	inactive
53	PSRC1 (GeneID 84722)	0.19	migration z between -2 and 2; enough cells	0.94	6014	inactive
54	SFXN5 (GeneID 94097)	0.52	migration z between -2 and 2; enough cells	0.9	5133	inactive
55	HOXC10 (GeneID 3226)	0.12	migration z between -2 and 2; enough cells	0.92	7660	inactive
56	TUBB8 (GeneID 347688)	-0.91	migration z between -2 and 2; enough cells	0.65	5506	inactive
57	MRPL28 (GeneID 10573)	2.12	migration z above 2; enough cells	1.44	5464	active
58	RARA (GeneID 5914)	0	migration z between -2 and 2; enough cells	0.8	4918	inactive
59	POLR3F (GeneID 10621)	-1.86	migration z between -2 and 2; enough cells	0.4	6310	inactive
60	VN1R1 (GeneID 57191)	-2.91	under 3300 nuclei; migration not judged	0.24	3044	inactive
61	AP4M1 (GeneID 9179)	-1.44	migration z between -2 and 2; enough cells	0.51	5044	inactive
62	CT47A3 (GeneID 728082)	-1.66	migration z between -2 and 2; enough cells	0.46	5304	inactive
63	OTUD6A (GeneID 139562)	1.02	migration z between -2 and 2; enough cells	1.15	5643	inactive
64	NHLH2 (GeneID 4808)	-0.95	migration z between -2 and 2; enough cells	0.64	5179	inactive
65	MAPK1IP1L (GeneID 93487)	-0.28	migration z between -2 and 2; enough cells	0.82	5648	inactive
66	PCDHB16 (GeneID 57717)	1.09	migration z between -2 and 2; enough cells	1.17	6574	inactive
67	IL19 (GeneID 29949)	-0.49	migration z between -2 and 2; enough cells	0.76	5387	inactive
68	WFDC2 (GeneID 10406)	-0.01	migration z between -2 and 2; enough cells	0.88	8004	inactive
69	CTSC (GeneID 1075)	0.99	migration z between -2 and 2; enough cells	1	5688	inactive
70	CES3 (GeneID 23491)	-0.55	migration z between -2 and 2; enough cells	0.7	6172	inactive
71	DPH1 (GeneID 1801)	-0.73	migration z between -2 and 2; enough cells	0.7	5716	inactive
72	TRIM25 (GeneID 7706)	-0.39	migration z between -2 and 2; enough cells	0.73	5154	inactive
73	RAMP1 (GeneID 10267)	2.02	migration z above 2; enough cells	1.41	5692	active

8 neighbouring entries already listed:
no.	gene symbol	migration robust z-score	migration class with cell-count check	migration relative to mock	nuclei per well, duplicate mean	Call
4	PRDM1 (GeneID 639)	-0.44	migration z between -2 and 2; enough cells	0.72	4424	inactive
5	TARBP2 (GeneID 6895)	-1.28	migration z between -2 and 2; enough cells	0.55	5796	inactive
6	SEMA4A (GeneID 64218)	0.02	migration z between -2 and 2; enough cells	0.89	5280	inactive
7	DSN1 (GeneID 79980)	0.01	migration z between -2 and 2; enough cells	0.88	4544	inactive
8	RASL10A (GeneID 10633)	-0.13	migration z between -2 and 2; enough cells	0.78	4799	inactive
9	DPYSL5 (GeneID 56896)	-0.08	migration z between -2 and 2; enough cells	0.86	6894	inactive
10	MOGS (GeneID 7841)	-0.36	migration z between -2 and 2; enough cells	0.74	6844	inactive
11	CREBRF (GeneID 153222)	-0.56	migration z between -2 and 2; enough cells	0.74	5714	inactive
